The record followed here is PMC10085685.

Results are given in words; binding and its absence hold for the method and conditions named. Some binding calls cover weakened binding; strength is not graded here. Tags and fused reporters may be left off the sequences shown.

This assay deals with T1, AtMHF2, yeast two-hybrid fusion (Arabidopsis thaliana) (UniProt Q8L7N3).
T1 sequence: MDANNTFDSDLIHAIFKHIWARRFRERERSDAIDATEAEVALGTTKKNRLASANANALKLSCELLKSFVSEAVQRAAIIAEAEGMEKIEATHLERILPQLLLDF
Put plainly: two-hybrid; Gal4-based system (Clontech), haploid strains AH109 and Y187 mated to a diploid strain; pGADT7-GW / PACT2 AD and pGBKT7(-GW) fusions.

B1: AtFANCE, yeast two-hybrid fusion (protein, UniProt Q9SU89 1-493)
chain: MEEWIPLFDIFLKSPSPEAEASLWLDQASNLFSSSSSAAAPINRSSFVSLLKKQCDQNSSPVTKKVLFIETLPNMVQSKILSFLLFEYQRFCVSDLVWLAREMLGSGGNKVVDFWVQRDAHNLLDRIPKPKFEWISNLDLDSADEDSMKQVFDSVPDWLSEKLGSAGTILPWLPVSCDDVDSEMLVVDSWNGKEITQIKEDMEEDQREVVHNIDHTMTVGLQAHDHEMAVNLRAQISNFESTSEVLTLCNDIRRLCLEKGKDSLRVLALIEPWNADDETAAVLLSSLHNGSEEEELGWPSHVLCSIVLPKFLSLEKSASRVLMSSTIEFCKIHQRAAEYALVFPLILRKEGINNFICEVISRVLKECLHLGQISGFCQKLLCGRTQERRFMFLPCHRDLISDELTWNEYLFILFQNILIHGIPLSQDSVDCLVSKVQELAERYSKSLKFGNFLLHFTAKCAPMLQAHKYQLIESVKCTNSLVTKSILSKLNAL
With B1, the binding result is listed as “binds”.
